# Measurements reported in PubChem BioAssay AID2685 (National Center for Advancing Translational Sciences (NCATS), 2010).
# The other results are listed elsewhere or left out. The main result of the screen is listed elsewhere. These columns were measured beside it and carry no call. The list favours compounds with an active or inconclusive main result. Words in brackets tell the shape of the fitted curve; partial curves, single points and poor fits give uncertain potencies.
# Test: qHTS Assay for Lipid Storage Modulators in Drosophila S3 Cells;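 as to cell number change: cells counted by Cell Tracker Red CMTPX staining in the red channel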
# Details: BODIPY lipid droplet fluorescence, 18-24 h; for cell number change: measured here: cell count max response, cells fed with added oleic acid
# How it was run: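 Drosophila S3 cells loaded with oleic acid (400 uM, as added) and compounds at several concentrations; lipid droplets imaged by 488-nm laser-scanning cytometry, 500–530 nm intensity and object ratio to cell channel. Percent activity normalized to 20 uM Triacsin C.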
# [1] = measured here: cell number channel AC50, cells fed with added oleic acid
# [2] = measured here: lipid fluorescence (Fed channel) AC50, cells fed with added oleic acid
Compound,cell number change [%],AC50 [1],AC50 [2]
O=C(/C=C/c1ccc(OCCCF)cc1)Nc1ccnc(-c2ccncc2)n1,-69.5,"16.4 µM [falling, single point]",–
O=C(NNS(=O)(=O)c1ccc(F)cc1)C1CCN(Cc2cccc(F)c2)CC1,34.1,"32.6 µM [rising, single point]","6.51 µM [falling, single point]"
COC(=O)c1c(NC(=O)COC(=O)CCNS(=O)(=O)c2ccccc2)sc(C)c1C,-21.9,–,–
CCOC(=O)N1CCN(c2c(N3CCN(c4ccccn4)CC3)c(=O)c2=O)CC1,50,"29.1 µM [rising, single point]",–
COc1ccc(CCNC(=O)Cc2ccc(Cl)cc2)cc1OC,-32.8,"16.4 µM [falling, single point]","29.1 µM [falling, single point]"
CCN(CC(=O)Nc1ccccc1C(=O)Nc1ccccc1)Cc1nc2ccccc2c(=O)[nH]1,-16.1,–,–
CCc1ccccc1NC(=O)Nc1cccn(Cc2ccccc2F)c1=O,–,–,"6.51 µM [rising, single point]"
CCCN(CC(=O)Nc1ccccc1OC)C(=O)c1ccc(COc2ccccc2)o1,-20,–,–
CC1CCN(c2ccc3c(c2)S(=O)(=O)c2cccc(C(=O)NC4CCCCC4)c2C3=O)CC1,-22.4,–,"29.1 µM [falling, single point]"
CCC1/C(=N\O)CC(c2ccco2)NC1c1ccco1 (stereo unspecified),35.3,"16.4 µM [rising, single point]","29.1 µM [rising, single point]"
CC(=O)OCCCN1c2ccccc2Nc2nnc(-c3ccccc3)cc21,-22,–,–
CCn1c(COc2ccc3ccccc3c2C)nnc1SCC(=O)Nc1cccc(C(=O)O)c1,25.2,–,"9.2 µM [rising, partial curve, poor fit]"
C#CCOc1ccc(/C=C2/C(=O)ON=C2C)cc1Cl,-29.8,–,"25.9 µM [falling, single point]"
O=C(Cc1cccs1)NCc1cccc(CNC(=O)Cc2cccs2)c1,51.2,"0.58 µM [rising, full curve]",–
COCCNC(=O)C(c1ccco1)N(C(=O)Cn1nnc2ccccc21)c1ccc(C)cc1C (stereo unspecified),91.5,"10.3 µM [rising, partial curve]","7.31 µM [rising, partial curve]"
O=C(O)C1CSC2(c3ccc(Br)cc3)CCC(=O)N12 (stereo unspecified),–,–,"1.03 µM [rising, single point]"
CCN(CC)CCOC(=O)c1ccc2c(c1)OCCO2,-61.6,"0.164 µM [falling, full curve]","2.31 µM [falling, partial curve]"
O=C(Nc1ccc(Cl)cc1)N1CCCN(Cc2ccc(F)cc2)C1,–,–,"0.259 µM [falling, full curve, poor fit]"
CCN1C(=O)c2cccc3c(NC(=O)c4ccc(OC)c(OC)c4)ccc1c23,–,"1.46 µM [rising, partial curve]","0.461 µM [rising, full curve]"
CCCCOc1ccccc1C(=O)N(Cc1ccc(C)o1)C1CCS(=O)(=O)C1 (stereo unspecified),-18.1,–,"29.1 µM [falling, single point]"

Compound,cell number change [%],AC50 [1],AC50 [2]
CN1CCN(C(=O)/C(=C/c2ccc(N(C)C)cc2)NC(=O)c2ccccc2)CC1,26.9,–,–
CCC1CCCCN1C(=S)NC(=O)c1ccc(F)c(S(=O)(=O)N2CCOCC2)c1 (stereo unspecified),14.5,–,"0.731 µM [falling, partial curve]"
Cc1ccc(N2C(=O)CC(n3nc(C)cc3C)C2=O)cc1 (stereo unspecified),8.37,–,"0.00461 µM [falling, full curve, poor fit]"
O=C(Nc1ccccn1)Nc1ccccc1[N+](=O)[O-],–,–,"4.61 µM [falling, full curve]"
Cn1nc(-c2ccc(C(=O)Nc3ccc(F)cc3)cc2)c2ccccc2c1=O,-67.2,–,–
O=C(c1coc(=O)c2ccccc12)N1CCN(Cc2ccccc2)CC1,-9.77,–,–
Cc1cc(OCC(=O)OCC(=O)NCC2CCCO2)ccc1Cl (stereo unspecified),14.5,–,"7.31 µM [rising, partial curve, poor fit]"
CCN(CC)C(=O)CSc1nnc([C@H](CCSC)NC(=O)OC(C)(C)C)o1,3.73,–,"0.731 µM [rising, single point]"
Cc1cccc(NS(=O)(=O)c2ccc(NC(=O)CN(c3cc([N+](=O)[O-])ccc3C)S(C)(=O)=O)cc2)c1,-60.9,"29.1 µM [falling, single point]","29.1 µM [falling, single point]"
NC(N)=N/N=C/c1ccc(OCc2ccc(Cl)cc2Cl)cc1,-76.6,"18.4 µM [falling, partial curve]","0.0058 µM [falling, full curve, poor fit]"
COc1ccc(CC2CCOC2=O)cc1 (stereo unspecified),1.33,–,–
Cn1cc(C(=O)c2ccc(Cl)cc2Cl)cc1C(=O)N/N=C(\N)COc1ccc(Cl)cc1Cl,31.5,"1.64 µM [rising, full curve, poor fit]","6.51 µM [rising, single point]"
COc1ccc(C2=CC(=O)CC(c3ccc(OC)cc3)C2)cc1 (stereo unspecified),106,–,–
Cc1[nH]c2ccc(C(=O)NCCCN3CCOCC3)cc2c1C,-2.09,–,–
COc1cccc(OC)c1C(=O)Nc1ccc(N2CCCC2)cc1,1.47,"0.58 µM [rising, full curve, poor fit]",–
O=C(CN1C(=O)c2cccc3cccc1c23)N1CCN(c2ccccc2)CC1,–,–,"0.58 µM [falling, single point]"
Cn1c(=O)c2cn3c(c2n(C)c1=O)C(c1ccccc1)CC(c1ccccc1)=N3 (stereo unspecified),7.4,–,"0.231 µM [rising, full curve, poor fit]"
COc1ccc(OC)c(NC(=O)c2ccc(NS(C)(=O)=O)cc2)c1,–,–,"7.31 µM [rising, partial curve]"
Cc1ccc(C2=NC3(CCCCC3)NC2=S)cc1,-57.2,"0.58 µM [falling, full curve]","0.58 µM [falling, full curve]"

# By substructure, the compounds so far containing an aryl thioether with sulfur outside any ring (two)
Compound,cell number change [%],AC50 [1],AC50 [2]
CCn1c(COc2ccc3ccccc3c2C)nnc1SCC(=O)Nc1cccc(C(=O)O)c1,25.2,–,"9.2 µM [rising, partial curve, poor fit]"
CCN(CC)C(=O)CSc1nnc([C@H](CCSC)NC(=O)OC(C)(C)C)o1,3.73,–,"0.731 µM [rising, single point]"
